# Results: PubChem BioAssay AID504467 (National Center for Advancing Translational Sciences (NCATS), 2011)
# Out of some 330,000 compounds screened, about 7,700 (2.3%) were called active. Inconclusive results, whose numbers are uncertain, are shown with a selection of clear calls. Calls come from the whole dose curve; as a rule, active = well fitted inhibition curve with a large enough effect; inconclusive = small, poorly fitted or top-dose-only effect, or effect the other way; inactive = flat fitted curve, though single readings scatter. Potencies beside an inconclusive call are fits to weak or partial responses and may not hold up.
# Assay: qHTS screen for small molecules that inhibit ELG1-dependent DNA repair in human embryonic kidney (HEK293T) cells expressing luciferase-tagged ELG1; note: nearly all actives have a fitted effect of over 55% in size
# Conditions: HEK293T ELG1-luciferase reporter, luminescence, 16 h, DNA damage induced by 5-fluorouridine; series mostly up to 46.1 µM
# Summary of the method: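 Overnight (16 hr) co-exposure of 2,000 cells/well to 5-fluorouridine and compound at 37 °C preceded detection. Luciferase was quantified via ONE-Glo luminescence; loss of signal denotes inhibition.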
# Potency is the fitted concentration of half-maximal effect.
row,SMILES,Potency
1,CCCn1c(SCC(=O)c2c(C)[nH]c(C)c2C(=O)OCC)nc2ccccc21,"inconclusive: 23.1 µM [inhibitor, single point]"
2,COc1ccc(CNc2nc3ccccc3n2CCN2CCOCC2)cc1,inactive
3,Cc1onc(-c2ccccc2Cl)c1C(=O)OCC(=O)Nc1cccc(S(=O)(=O)N(C)C)c1,active: 16.4 µM
4,O=C(C1CCN(S(=O)(=O)c2cccs2)CC1)N1CCN(c2ccccc2O)CC1,inactive
5,Cc1ccc(C)c(S(=O)(=O)Nc2ccc(S(=O)(=O)Nc3onc(C)c3C)cc2)c1,inactive
6,Cc1cccc(CN2CCc3c(OCC(=O)NCc4ccco4)cccc3C2=O)c1,"inconclusive: 29.1 µM [inhibitor, partial curve, poor fit]"
7,NC(N)=Nc1nc(C2COc3ccccc3O2)cs1 (stereo not given),"inconclusive: 2.06 µM [activator, full curve]"
8,O=C(COC(=O)/C=C/c1cccs1)Nc1ccc(Cl)cc1F,inactive
9,COc1ccc(Cc2nnc(SCC(=O)N3CCN(c4ccccc4)CC3)o2)cc1,"inconclusive: 18.4 µM [inhibitor, single point]"
10,Cc1cc(S(=O)(=O)NCCCN2CCOCC2)ccc1Br,inactive
11,O=S(=O)(c1ccccc1)N1CCN(CCc2ccccc2)CC1,"inconclusive: 16.4 µM [inhibitor, partial curve, poor fit]"
12,Cn1ncc(S(=O)(=O)Cc2ccccc2)c(Cl)c1=O,inactive
13,C(=N\Nc1nc2ccccc2s1)/c1ccco1,"inconclusive: 1.64 µM [activator, full curve]"
14,Cc1ccc(-c2nc3ccsc3c(=O)o2)cc1,"inconclusive: 16.4 µM [activator, partial curve]"
15,CC1CCCCC1NC(=O)Cc1ccc(S(=O)(=O)N2CCOCC2)s1 (stereo not given),inactive
16,CCOc1ccc(C(=O)NC2CCN(C(=S)NCc3ccco3)CC2)cc1,inactive
17,O=C(NN=Cc1ccc(N2CCOCC2)cc1)c1cc2ccccc2cc1O,inactive
18,Cc1nn(Cc2c(Cl)cccc2Cl)c(C)c1NC(=O)CCCn1nc(C)c([N+](=O)[O-])c1C,"inconclusive: 32.6 µM [inhibitor, partial curve, poor fit]"
19,COc1ccccc1-c1nnc(SC(C)C(=O)N2CCOCC2)o1 (stereo not given),"inconclusive: 11.2 µM [activator, partial curve, poor fit]"
20,CC(=O)c1ccc(NC(=O)COC(=O)c2c3c(nc4ccccc24)/C(=C\c2cccs2)CCC3)cc1,active: 10.3 µM
21,Cc1cccn2cc(CCNC(=O)Cc3cccs3)nc12,"inconclusive: 16.4 µM [activator, single point]"
22,COc1ccc(C2c3cc(OC)c(OC)cc3CCN2C(=O)c2ccccc2)cc1OC (stereo not given),active: 6.51 µM
23,O=C(O)CCCCCCCCCCCNC(=O)NC12CC3CC(CC(C3)C1)C2,"inconclusive: 0.184 µM [activator, full curve]"
24,CCc1ccc2c(COC(=O)C3CC(=O)N(CCc4ccccc4)C3)cc(=O)oc2c1 (stereo not given),"inconclusive: 29.1 µM [activator, single point]"

# Single entries from the results shown:
# Potency, C(=N\Nc1nc2ccccc2s1)/c1ccco1 is entered as inconclusive: 1.64 µM [activator, full curve]
# Potency, Cc1cc(S(=O)(=O)NCCCN2CCOCC2)ccc1Br is entered as inactive

# Following part:

row,SMILES,Potency
1,C[C@]12c3[nH]c4ccc(Cl)cc4c3CCN1C(=O)[C@@H](CC(=O)NCCC1=CCCCC1)C[C@@H]2C(=O)N1CCCCC1,"inconclusive: 23.1 µM [inhibitor, single point]"
2,COc1ccc2cc(CN(CC3CCCO3)S(=O)(=O)c3ccccc3Cl)c(=O)[nH]c2c1 (stereo not given),"inconclusive: 18.4 µM [inhibitor, single point]"
3,Cc1cccc(N2C(=O)c3cccc4c(N(C)CCO)ccc(c34)C2=O)c1,inactive
4,CCc1ccc(-c2cc(C)no2)cc1S(=O)(=O)NCCc1ccc(OC)c(OC)c1,"inconclusive: 18.3 µM [inhibitor, single point]"
5,Oc1ccc(Cl)cc1C1=NNC(c2cc(Br)cc3c2OCOC3)C1 (stereo not given),"inconclusive: 23.1 µM [inhibitor, single point]"
6,O=c1[nH]cc(F)c(=O)[nH]1,inactive
7,Cc1cccc(Cc2nnc(CCC(=O)N3CCCCC3c3nccs3)o2)c1 (stereo not given),"inconclusive: 18.3 µM [activator, single point]"
8,O=C(O)CNC(=S)N(Cc1ccco1)Cc1ccccc1Cl,"inconclusive: 10.3 µM [activator, partial curve]"
9,COc1ccc(N2CCN(C(=O)CN(C)S(=O)(=O)c3ccc4c(c3)c(=O)n(C)c(=O)n4C)CC2)cc1,"inconclusive: 23.1 µM [inhibitor, single point]"
10,CNc1nc2cc([N+](=O)[O-])c([N+](=O)[O-])cc2nc1NC,"inconclusive: 5.8 µM [inhibitor, single point]"
11,CCCCN(C(=O)CC1OC(=O)c2ccccc21)c1c(N)n(CCCC)c(=O)[nH]c1=O (stereo not given),"inconclusive: 29.1 µM [activator, single point]"
12,CCC(C)[C@@H](NC(=O)OC(C)(C)C)c1nnc(S(=O)(=O)Cc2cccc(C)c2)o1 (stereo not given in full),"inconclusive: 14.6 µM [activator, partial curve]"
13,Cc1ccc(S(=O)(=O)N2CCC(=O)N(CCOCc3ccc(C(F)(F)F)cc3)CC2)cc1,inactive
14,CC/C(=N\NC(=O)c1nnn(-c2nonc2N)c1CN(C)c1ccccc1)c1ccccc1,inactive
15,Nc1[nH]nc2nc(NCc3ccccc3)c3c(c12)CCN(Cc1ccccc1)C3,"inconclusive: 18.4 µM [activator, partial curve, poor fit]"
16,CC(C)CN(C(=O)CSc1nnc(C2CC2)n1-c1ccccc1)C1CCS(=O)(=O)C1 (stereo not given),inactive
17,CCn1nnnc1SCC(=O)Nc1nc(C)c(C)s1,"inconclusive: 14.6 µM [activator, partial curve]"
18,COC(CNC(=O)c1ccc2nc3ccccc3c(=O)n2c1)OC,"inconclusive: 18.3 µM [activator, single point]"
19,COc1ccc(C)cc1N(CC(=O)NCCN1CCOCC1)S(=O)(=O)c1ccccc1,"inconclusive: 11.2 µM [activator, partial curve, poor fit]"
20,O=C(CSc1nncs1)Nc1ccc2c(c1)OCCO2,"inconclusive: 2.06 µM [activator, full curve]"
21,CCOc1ccc(N2C(=O)CC(N(CCc3ccccc3)C(=O)/C=C/C(=O)O)C2=O)cc1 (stereo not given),inactive
22,CN(C)c1ccc(C(C(=O)NCc2ccccc2)N(Cc2ccco2)C(=O)c2snc(C(N)=O)c2N)cc1 (stereo not given),"inconclusive: 11.6 µM [inhibitor, partial curve]"
23,N/C(=N\OC(=O)CC1CCCCC1)c1cccc(Br)c1,"inconclusive: 16.4 µM [activator, single point]"
24,COc1ccccc1NC(=O)Cn1cnc2c(cnn2-c2ccc(C)c(C)c2)c1=O,"inconclusive: 18.4 µM [inhibitor, single point]"

# Compounds listed so far containing bromine:
row,SMILES,Potency
10,Cc1cc(S(=O)(=O)NCCCN2CCOCC2)ccc1Br,inactive
5,Oc1ccc(Cl)cc1C1=NNC(c2cc(Br)cc3c2OCOC3)C1 (stereo not given),"inconclusive: 23.1 µM [inhibitor, single point]"
23,N/C(=N\OC(=O)CC1CCCCC1)c1cccc(Br)c1,"inconclusive: 16.4 µM [activator, single point]"

# The list continues.

row,SMILES,Potency
1,Cc1cccc(N2CCN(C(=O)CSc3ccc4c(c3)OCCO4)CC2)c1C,active: 11.2 µM
2,O=C(CCCC(=O)OCC(=O)c1cccs1)Nc1ccc(Oc2ccccc2)cc1,inactive
3,CC(C)c1ccc(OCC(O)Cn2cnc3ccccc32)cc1 (stereo not given),"inconclusive: 25.9 µM [inhibitor, single point]"
4,COC(=O)c1cc2c(s1)-c1ccccc1OC2,"inconclusive: 18.4 µM [activator, single point]"
5,CC1Cc2ccccc2N1C(=O)/C=C/c1cccc(F)c1 (stereo not given),"inconclusive: 7.3 µM [activator, partial curve]"
6,CN1CCN(NC(=O)NC2CCCCC2)CC1,inactive
7,CON(C)c1nc(OCCNC(=O)COc2ccc(Cl)cc2C)nc(N(C)C)n1,"inconclusive: 16.4 µM [inhibitor, partial curve, poor fit]"
8,Cc1cc(/C=N/NC(=O)c2cc3ccccc3o2)c(C)n1C,"inconclusive: 23.1 µM [inhibitor, single point]"
9,COCCCNC(=S)NCCc1ccc(F)cc1,"inconclusive: 29.1 µM [activator, single point]"
10,CC1CCCN(C(C(=O)NC2CCCCC2)c2cc3c(cc2[N+](=O)[O-])OCO3)C1 (stereo not given),inactive
11,CCCCCC[N+](C)(C)CCSSCC[N+](C)(C)CCCCCC,inactive
12,CCS(=O)(=O)c1ccc2oc(Nc3cccc(OC)c3)nc2c1,"inconclusive: 10.3 µM [activator, partial curve]"
13,COc1ccc2nc(NC(=O)C3CC(=O)N(c4ccccc4)C3)sc2c1 (stereo not given),"inconclusive: 20.6 µM [inhibitor, partial curve]"
14,Cc1cccc(C(=O)NC2CCN(C(=O)NCc3ccccc3)CC2)c1,inactive
15,CC1(C)CC(=O)C/C(=N\NC(=S)NCc2ccccc2)C1,inactive
16,CN(CC(O)CON=C1c2ccccc2-c2ccccc21)S(=O)(=O)c1ccc(Br)cc1 (stereo not given),active: 20.6 µM
17,O=C(O)c1cn(C2CCCCC2)c2ccccc2c1=O,"inconclusive: 18.3 µM [inhibitor, partial curve]"
18,O=[N+]([O-])c1ccc(Nc2c3ccccc3nc3ccccc23)cc1,"inconclusive: 16.4 µM [inhibitor, single point]"
19,COC(=O)c1c(NC(=O)Cc2ccc(OC)c(S(=O)(=O)N3CCOCC3)c2)sc(C)c1C,"inconclusive: 25.9 µM [inhibitor, single point]"
20,Nc1ccc(S(=O)(=O)Nc2nccc(/C=C/c3ccc(Br)s3)n2)cc1,"inconclusive: 29.1 µM [activator, single point]"
21,COc1ccc(OC)c(N/C(C)=C/C(=O)c2ccccc2)c1,"inconclusive: 5.8 µM [activator, partial curve]"
22,O=C(NN1C(=O)C2C3CCC(O3)C2C1=O)c1ccco1 (stereo not given),inactive
